## Results of single-concentration screens

Chains of the proteins cited; added tags and fusions are not shown. Residues count along the entry.
UniProt Q8IDJ8, 1-583: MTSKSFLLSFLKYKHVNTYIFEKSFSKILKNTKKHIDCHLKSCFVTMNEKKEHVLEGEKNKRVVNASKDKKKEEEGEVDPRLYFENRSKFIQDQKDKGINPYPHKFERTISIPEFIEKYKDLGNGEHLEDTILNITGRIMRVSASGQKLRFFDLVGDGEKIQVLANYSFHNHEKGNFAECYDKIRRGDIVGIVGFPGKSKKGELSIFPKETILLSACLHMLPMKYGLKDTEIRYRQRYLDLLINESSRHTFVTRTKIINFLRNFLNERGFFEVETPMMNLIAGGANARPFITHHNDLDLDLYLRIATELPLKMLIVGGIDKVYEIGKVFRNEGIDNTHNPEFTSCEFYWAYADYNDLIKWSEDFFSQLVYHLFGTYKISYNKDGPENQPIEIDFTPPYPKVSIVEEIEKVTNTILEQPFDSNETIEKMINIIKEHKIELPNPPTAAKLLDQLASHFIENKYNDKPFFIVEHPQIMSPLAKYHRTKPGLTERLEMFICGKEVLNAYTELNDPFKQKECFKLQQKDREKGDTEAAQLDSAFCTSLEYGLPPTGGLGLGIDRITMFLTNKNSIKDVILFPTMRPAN
UniProt I6X8D2, whole entry: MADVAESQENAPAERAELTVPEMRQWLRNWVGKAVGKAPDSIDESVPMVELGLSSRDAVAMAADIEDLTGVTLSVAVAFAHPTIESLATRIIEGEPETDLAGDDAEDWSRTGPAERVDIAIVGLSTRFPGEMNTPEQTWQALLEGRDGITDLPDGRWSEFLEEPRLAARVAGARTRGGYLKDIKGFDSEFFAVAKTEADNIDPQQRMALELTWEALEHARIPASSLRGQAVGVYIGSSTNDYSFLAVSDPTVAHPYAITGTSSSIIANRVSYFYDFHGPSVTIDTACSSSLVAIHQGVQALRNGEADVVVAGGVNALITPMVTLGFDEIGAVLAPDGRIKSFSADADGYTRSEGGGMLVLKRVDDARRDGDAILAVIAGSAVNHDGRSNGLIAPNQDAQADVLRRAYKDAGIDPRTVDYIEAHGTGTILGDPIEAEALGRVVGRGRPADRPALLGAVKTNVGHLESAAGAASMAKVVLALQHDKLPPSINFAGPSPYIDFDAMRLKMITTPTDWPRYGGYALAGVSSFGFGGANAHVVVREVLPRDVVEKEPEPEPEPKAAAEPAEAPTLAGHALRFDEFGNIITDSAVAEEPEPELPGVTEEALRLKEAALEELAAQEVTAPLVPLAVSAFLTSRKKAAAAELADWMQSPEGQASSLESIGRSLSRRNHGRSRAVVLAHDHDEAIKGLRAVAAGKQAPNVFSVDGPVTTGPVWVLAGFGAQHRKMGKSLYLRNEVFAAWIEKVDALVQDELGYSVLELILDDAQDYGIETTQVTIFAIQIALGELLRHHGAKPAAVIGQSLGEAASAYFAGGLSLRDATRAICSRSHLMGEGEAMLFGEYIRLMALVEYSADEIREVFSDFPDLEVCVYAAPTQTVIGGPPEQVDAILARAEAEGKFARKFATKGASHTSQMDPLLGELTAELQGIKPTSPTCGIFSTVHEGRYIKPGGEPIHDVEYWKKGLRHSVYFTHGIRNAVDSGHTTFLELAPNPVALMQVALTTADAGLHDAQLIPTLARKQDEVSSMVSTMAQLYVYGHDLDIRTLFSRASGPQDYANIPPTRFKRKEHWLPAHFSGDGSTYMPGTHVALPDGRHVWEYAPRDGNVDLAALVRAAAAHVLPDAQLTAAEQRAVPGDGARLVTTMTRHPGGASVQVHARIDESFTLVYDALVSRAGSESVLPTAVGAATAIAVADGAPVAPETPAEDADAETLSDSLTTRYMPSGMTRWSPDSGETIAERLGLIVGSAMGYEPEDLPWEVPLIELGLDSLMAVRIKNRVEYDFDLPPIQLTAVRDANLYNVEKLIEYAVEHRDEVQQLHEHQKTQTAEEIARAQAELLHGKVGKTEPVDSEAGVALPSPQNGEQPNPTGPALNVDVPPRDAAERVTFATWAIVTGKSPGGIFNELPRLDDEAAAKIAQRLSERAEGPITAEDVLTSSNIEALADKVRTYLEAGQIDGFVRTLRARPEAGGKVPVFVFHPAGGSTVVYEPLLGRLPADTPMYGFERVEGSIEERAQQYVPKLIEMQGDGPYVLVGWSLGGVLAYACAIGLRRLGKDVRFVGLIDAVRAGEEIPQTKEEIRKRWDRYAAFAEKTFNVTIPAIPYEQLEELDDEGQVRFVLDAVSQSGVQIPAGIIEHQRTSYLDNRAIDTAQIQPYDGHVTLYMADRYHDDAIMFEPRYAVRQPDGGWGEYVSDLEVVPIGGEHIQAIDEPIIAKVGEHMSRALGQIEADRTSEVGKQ
UniProt P9WPC5, whole entry: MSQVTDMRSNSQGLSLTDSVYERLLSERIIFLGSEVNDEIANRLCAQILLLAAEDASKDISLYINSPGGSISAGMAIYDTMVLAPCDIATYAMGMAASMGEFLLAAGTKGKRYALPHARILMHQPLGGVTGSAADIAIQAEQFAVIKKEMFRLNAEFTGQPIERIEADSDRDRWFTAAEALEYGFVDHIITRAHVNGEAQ
UniProt P9WPC3, whole entry partner: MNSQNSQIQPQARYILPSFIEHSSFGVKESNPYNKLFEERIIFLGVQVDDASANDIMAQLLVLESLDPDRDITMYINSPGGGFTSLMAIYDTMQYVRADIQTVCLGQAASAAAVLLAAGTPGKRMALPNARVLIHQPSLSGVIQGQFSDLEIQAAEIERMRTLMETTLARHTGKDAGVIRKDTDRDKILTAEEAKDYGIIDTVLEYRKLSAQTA

A: 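Lysine-tRNA ligase, Plasmodium falciparum 3D7 (UniProt Q8IDJ8). Enzyme assay of the cytosolic lysyl-tRNA synthetase in 384-well plates, read by luminescence. Compounds at 30 µM. Higher reads as stronger inhibition, judged from the few compounds that gave an IC50. Size under these conditions: about 69,000 compounds, about 49 of them at 50% or above in at least one test.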
B: 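Polyketide synthase Pks13, Mycobacterium tuberculosis (UniProt I6X8D2). Enzyme assay of the thioesterase domain of polyketide synthase 13; the read-out is not stated. Concentration: 30 µM. Higher reads as stronger inhibition (inferred from which compounds were picked for retests). Size under these conditions: about 67,000 compounds, about 300 of them at 50% or above in at least one test.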
C: 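ClpP1P2, Mycobacterium tuberculosis (UniProt P9WPC5 and UniProt P9WPC3). Protease assay of ClpP1P2, read by the AMC dye that it sets free. Concentration: 50 µM. Higher reads as stronger inhibition, judged from the few compounds that gave an IC50. Most other retested compounds had strongly negative values. Size under these conditions: about 69,000 compounds, about 10 of them at 50% or above in at least one test.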

Results are given as percent effect. How 0% and 100% were set is not recorded. Most values in the screen are low, and negative values occur. This is an unselected part of the compounds tested. A dash means the value is not listed here; it may have been measured.

Compound	A	B	C
CC(C)c1n[nH]c(C2CN(C(=O)c3cc(C4CC4)on3)CCO2)n1 (configuration not stated)	-2.066%	-4.599%	-12.53%
CCN1CC2(CC1=O)CN(C(=O)c1ccoc1)CCN(C(=O)N(C)C)C2 (configuration not stated)	5.206%	-4.279%	-17.08%
CN(CC(=O)Nc1ccc(Br)cn1)C(=O)C(C)(C)C	1.791%	-6.854%	-21.92%
Cc1ccc(S(=O)(=O)NC[C@H]2OC[C@@H](NCc3ccccn3)[C@@H]2O)cc1	-1.261%	24.5%	3.975%
Cc1ccc2oc(C(=O)N3CCC(C(=O)N4CCCC4)CC3)cc2n1	-0.8909%	4.495%	9.697%
O=C(COc1ccccc1)N1C[C@@H](O)[C@H](N2CCCC2)C1	2.136%	-21.3%	0.9624%
CN(CCCc1nccn1C)c1nccc(-c2cc(C(=O)O)ccn2)n1	0.9314%	-27.47%	5.52%
Cc1nnc2n1CCN(Cc1csc(-c3cnn(C)c3)n1)C2	-2.502%	-22.94%	-1.639%
CN(Cc1cn2c(n1)CN(Cc1ccsc1)CC2)Cc1ccco1	2.534%	0.961%	-41.84%
O=C(c1cccc(-c2ccc(F)cc2)c1)N1CCCC(O)(CO)CC1 (configuration not stated)	-3.005%	-8.155%	-5.914%
CCc1oc(C(=O)NCCSc2ncn[nH]2)cc1CN1CCCC1	0.3217%	-41.85%	-7.537%
COc1ccc(OCCNCc2c(C)nn(C)c2N(C)C)cc1	-0.3202%	-30.04%	-4.583%
CCOC(=O)c1nc(CN2CCN(C(C)C(=O)NC3CC3)CC2)cs1 (configuration not stated)	4.461%	-12.2%	8.766%
CN(C)C(=O)N1Cc2nnn(CC3CC3)c2C(COCC2CC2)C1 (configuration not stated)	3.01%	-2.1%	-9.488%
COC(=O)Cn1c(=O)nc2n1C(=O)N(c1ccc(C)cc1)C2	1.42%	-8.507%	5.878%
Cc1nc(CC(=O)NS(=O)(=O)c2cccc3cnccc23)cs1	2.352%	-21.84%	-3.726%
CN(C)CCNc1c(-c2ccccc2)c(=O)c1=O	2.627%	-3.73%	2.517%
CC(C)COc1ccccc1C(N)CC(C)C (configuration not stated)	-1.188%	13.68%	-15.2%
CCc1n[nH]c(C2CN(CCc3cccs3)CCO2)n1 (configuration not stated)	8.251%	-18.45%	-4.066%
Cc1nn2cccnc2c1C(=O)N1CCCC(n2ccnc2)C1 (configuration not stated)	10.28%	-29.22%	5.626%
c1cnc(NCC2Cn3nnc(-c4ccsc4)c3CO2)nc1 (configuration not stated)	0.07678%	-6.942%	-2.83%
O=C(c1ccnnc1)N1C[C@@H]2C[C@@H](c3nc(C4CC4)cs3)O[C@@H]2C1	-31.36%	-0.8981%	5.884%
CCOCC(O)CN1CCN(C(=O)C2CCCC2)CC1 (configuration not stated)	0.06352%	-9.499%	-19.04%
CCn1nnc2c1C(COCC(=O)N(C)C)CN(Cc1ccco1)C2 (configuration not stated)	1.606%	-	22.36%
CC(C)CCNC(=O)c1ccc(-n2cnc3ccccc3c2=O)cc1	5.56%	1.618%	-6.361%
COc1ccccc1CCNC(=O)CNC1CCc2nc(C)nn2C1 (configuration not stated)	5.558%	-27.36%	-8.098%
CCn1nccc1CNC(=O)NC1CCCCC1	-5.931%	-3.534%	10.81%
Cc1ccc2c(c1)C(NC(=O)C1CCN(S(C)(=O)=O)CC1)CC(C)(C)O2 (configuration not stated)	-1.753%	-7.189%	-14.55%
COC1CCCN(C(=O)NCc2ccc(C(=O)N(C)C(C)C)cc2)C1 (configuration not stated)	1.816%	-28.35%	1.995%
Cc1cc(-c2cnc(NCc3ccc4c(c3)OCO4)nc2C(C)C)on1	5.041%	5.342%	1.109%
Cc1noc(C)c1CN1CCN(Cc2cccnc2)c2ncccc2C1	4.991%	-4.376%	-7.755%
CN(C)CCOCc1nnc2n1CCN(Cc1ccsc1)C2	1.269%	-	6.048%
COc1cccc(N2CCN(C(=O)C(O)CC(C)C)CC2=O)c1 (configuration not stated)	-4.975%	6.35%	2.335%
COc1cccc(CN2CCCCC2Cn2nc(C)nc2C)c1 (configuration not stated)	0.5761%	-15.31%	-10.77%
NC(=O)CN1CCCN(C(=O)COc2cccc(F)c2)CC1	5.966%	5.44%	2.476%
CCc1cccc(NC(=O)NC2CCc3nc(C)nn3C2)c1 (configuration not stated)	3.754%	-63.74%	-1.08%
COC(=O)[C@@H]1CN(C(=O)NC(C)C)CCN1S(=O)(=O)c1ccccc1	4.122%	-24.01%	-7.888%
CCC(NC(=O)c1coc(COc2cccc(F)c2F)n1)C(=O)NC (configuration not stated)	6.81%	-26.55%	-2.969%
CC(C)C(=O)N1CCCC2(C1)CN(c1nncs1)CCO2 (configuration not stated)	2.179%	4.515%	-7.192%
COc1cccc(CN2CCC(CO)(Cc3ccc(Cl)cc3)CC2)c1O	1.599%	-29.58%	-10.53%
CC1(C)OCC(CNC(=O)c2cnn(-c3ccc(Cl)cc3)c2N)O1 (configuration not stated)	2.51%	-15.33%	14.57%
CN(C(=O)CCNC(=O)NC1CCCCC1)c1ccccc1	2.705%	-14.26%	-1.418%
O=C(Cc1ccc(Cl)cc1)N[C@@H]1CCC[C@@H](O)[C@@H]1O	-0.9288%	-	-4.316%
Cc1ccc(F)c(S(=O)(=O)NCc2cccc(CS(C)(=O)=O)c2)c1	2.791%	-6.811%	-15.64%
COCCCN1C(=O)CC[C@H]2CN(Cc3cc4ccccc4o3)CC[C@H]21	0.3747%	-4.884%	-10.81%
Nc1nc2c(c(N3CCC(CCn4cccn4)CC3)n1)CCNCC2	-0.6339%	-23.23%	7.01%
Cc1ccc(CN(CCCO)Cc2nc3ccccc3[nH]2)s1	-1.188%	-7.361%	-8.981%
Cc1cccn2cc(CNS(=O)(=O)N3CCOCC3)nc12	10.14%	-5.147%	-6.973%
CC(C)(C)CNC(=O)CNC(=O)C1CC1	1.727%	-26.16%	-1.613%
CC(Cn1cccn1)NC(=O)Nc1cccnc1 (configuration not stated)	3.416%	-20.99%	1.083%
CC(=O)N[C@H]1CN(CC(=O)NCc2ccccc2C)C[C@@H]1C(C)C	1.913%	-26.39%	-11.02%
CCCc1nnc(NCCc2noc(C3CCCC3)n2)o1	-3.203%	9.921%	14.13%
CN(C)c1ncccc1CNC(=O)N1CCCC1CN1CCCC1 (configuration not stated)	-0.3656%	-6.255%	-9.458%
COc1ccc(Cl)cc1NCc1cc(C)on1	1.506%	-3.674%	-19.28%
Cc1nc(-c2ccc(C(=O)O)cc2)cc(C2CCN(C(C)C)CC2)n1	0.7853%	-18.87%	18.42%
COc1cccc(CC(=O)N2CCc3ncnc(NC(C)C)c3CC2)c1	-2.689%	-16.03%	2.286%
COc1ccc(CC(=O)N2CCCC(n3nc(C)cc3C)C2)cc1F (configuration not stated)	2.565%	-9.446%	-1.192%
CCc1ccc(C(=O)N2CCC(N(C)C(=O)OC(C)(C)C)C2)o1 (configuration not stated)	-4.826%	-9.458%	-6.326%
COCCCC(=O)Nc1cccnc1N1CCCCC1	1.864%	-1.021%	-15.93%
CN(C)S(=O)(=O)N1CCCC(c2nccnc2-c2cccc(Cl)c2)C1 (configuration not stated)	1.99%	2.01%	-26.16%
CCn1cnnc1C1CCN(C(=O)COc2ccccc2)CC1	7.47%	-13.26%	13.69%
Cc1cc(NCc2csc(-c3ccsc3)n2)no1	8.83%	-13.3%	1.594%
CNC(=O)c1cnn2c(C3CCCN3)ccnc12 (configuration not stated)	5.156%	47.33%	-3761%
O=C(Cc1cccc(F)c1)N1CCn2cc(Cn3cccn3)nc2C1	4.098%	-10.06%	5.75%
CSC(C)(C)CNC(=O)NC1CCSCC1	1.935%	-16.38%	-7.145%
Cn1cccc1C(O)CNC(=O)COc1ccccc1F (configuration not stated)	-0.5319%	-38.8%	-0.2527%
COc1ccc(Cl)cc1C(=O)NCC1CCN(C(=O)c2ccoc2)CC1	1.833%	-10.89%	-4.665%
Cc1ccnn1CC(=O)N(C)Cc1cnn(-c2ccccc2)c1	2.252%	-10.07%	-10.57%
OC[C@H]1CN(Cc2c(Cl)cccc2Cl)C[C@H]1CN1CCCCC1	2.902%	27.03%	-8.281%
CN(CCc1ccccc1)C(=O)c1cccnc1OCC(F)(F)F	2.528%	-50.36%	3.356%

For reference, 5 entries once more:

{"compound": "COCCCN1C(=O)CC[C@H]2CN(Cc3cc4ccccc4o3)CC[C@H]21", "A": 0.3747, "B": -4.884, "C": -10.81}
{"compound": "Cc1nn2cccnc2c1C(=O)N1CCCC(n2ccnc2)C1", "stereo": "configuration not stated", "A": 10.28, "B": -29.22, "C": 5.626}
{"compound": "COc1ccc(CC(=O)N2CCCC(n3nc(C)cc3C)C2)cc1F", "stereo": "configuration not stated", "A": 2.565, "B": -9.446, "C": -1.192}
{"compound": "Nc1nc2c(c(N3CCC(CCn4cccn4)CC3)n1)CCNCC2", "A": -0.6339, "B": -23.23, "C": 7.01}
{"compound": "CC(C)C(=O)N1CCCC2(C1)CN(c1nncs1)CCO2", "stereo": "configuration not stated", "A": 2.179, "B": 4.515, "C": -7.192}

From ChEMBL document CHEMBL3988442, “University of Dundee, Small-Polar-MMV Screening Library” (2021).